From article PMC11520566, “Discovery of pyrazole-based analogs as CDK2 inhibitors with apoptotic-inducing activity: design, synthesis and molecular dynamics study” (RSC Advances, 2024) come the findings set out here.

The nature of one series: in vitro. Particulars: human.
For another series, the system named is HCT-116 cell line. The series can be described thus: MTT cell viability assay. Particulars: Homo sapiens, HCT-116, read-out: IC50 (cytotoxicity, MTT).

Each structure is given as a SMILES string.

For orientation: IC50 means the concentration needed to halve the response being measured.

`CN[C@@H]1C[C@H]2O[C@@](C)([C@@H]1OC)n1c3ccccc3c3c4c(c5c6ccccc6n2c5c31)C(=O)NC4` [staurosporine, reference compound]: the 50% inhibitory concentration (IC50) in the series “in vitro” came out at 28.9 µM; in the series on HCT-116 cell line, 7.02 µM.
